System: MEF2 transcriptional activity
Test: MEF2 transcriptional activity screen (Luciferase-MEF2 reporter in human neural progenitor cells)
Format: cell-based
Details: concentration for half-maximal activity derived from the hill equation model, read-out: qAC50

## O=C(CCCCCCC(=O)Nc1ccccc1)NO [vorinostat]
  EC50: 7.81 µM

— US20250161243A1, “MEF2 TRANSCRIPTIONAL ACTIVATORS TO TREAT NEUROLOGIC CONDITIONS” (The Scripps Research Institute, priority 2022, published 2025)
